From PMC11388069 come the findings set out here.

Sequences of proteins named here, by UniProt entry; tags and fusion partners are left off. A change or cut given only in a name is not applied to a line headed by its entry.
UniProt P08183: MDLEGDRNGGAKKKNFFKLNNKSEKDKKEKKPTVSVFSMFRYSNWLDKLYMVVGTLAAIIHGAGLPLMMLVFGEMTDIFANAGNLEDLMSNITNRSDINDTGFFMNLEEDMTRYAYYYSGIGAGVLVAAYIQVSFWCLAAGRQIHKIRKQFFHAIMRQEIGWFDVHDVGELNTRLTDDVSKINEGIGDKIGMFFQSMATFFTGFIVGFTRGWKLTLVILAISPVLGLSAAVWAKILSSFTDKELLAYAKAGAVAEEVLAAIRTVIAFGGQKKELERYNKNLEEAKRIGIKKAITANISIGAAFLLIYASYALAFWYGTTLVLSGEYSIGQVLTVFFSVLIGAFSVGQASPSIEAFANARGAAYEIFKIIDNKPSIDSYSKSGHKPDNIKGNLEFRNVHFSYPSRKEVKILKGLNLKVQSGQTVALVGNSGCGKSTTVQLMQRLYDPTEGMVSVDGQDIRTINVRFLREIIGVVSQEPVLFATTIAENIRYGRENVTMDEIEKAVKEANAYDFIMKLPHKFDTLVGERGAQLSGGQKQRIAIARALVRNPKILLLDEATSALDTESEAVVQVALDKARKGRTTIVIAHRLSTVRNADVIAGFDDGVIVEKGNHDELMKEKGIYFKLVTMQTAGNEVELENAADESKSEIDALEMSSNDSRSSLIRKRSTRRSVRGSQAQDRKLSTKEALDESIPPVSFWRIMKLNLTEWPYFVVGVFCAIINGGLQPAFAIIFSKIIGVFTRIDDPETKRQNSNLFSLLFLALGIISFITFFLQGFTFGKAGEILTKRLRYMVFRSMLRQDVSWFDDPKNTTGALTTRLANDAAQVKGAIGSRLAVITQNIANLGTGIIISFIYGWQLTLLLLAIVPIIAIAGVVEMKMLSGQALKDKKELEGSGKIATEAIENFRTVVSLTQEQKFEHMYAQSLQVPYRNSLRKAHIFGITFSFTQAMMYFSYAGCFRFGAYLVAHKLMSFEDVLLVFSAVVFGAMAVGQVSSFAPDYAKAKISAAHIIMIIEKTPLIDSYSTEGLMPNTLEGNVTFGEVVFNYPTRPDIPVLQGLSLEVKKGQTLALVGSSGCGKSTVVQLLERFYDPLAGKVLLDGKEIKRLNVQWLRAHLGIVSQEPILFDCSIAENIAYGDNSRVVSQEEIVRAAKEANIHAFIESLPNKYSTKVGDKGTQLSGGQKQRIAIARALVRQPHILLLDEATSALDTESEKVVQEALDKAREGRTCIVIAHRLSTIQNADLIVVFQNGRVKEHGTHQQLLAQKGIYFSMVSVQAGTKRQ

Holding throughout (assay): co-IP; cells transfected with P-gp, MGAT3 plus P-gp, MGAT3 plus P-gp Mut2, or full-length and truncated P-gp; immunoprecipitation and western blot
One assay deals with truncated P-gp Δ1.
A further assay concerns the target truncated P-gp Δ2.
The target in assay [1] is P-gp Mut2 (mutant at Asn 494) (UniProt P08183).

Results are given in words; binding and its absence hold for the method and conditions named. In cells and extracts the contact can be indirect. For part of these data: Binding can be weak; no strength is given.

B1: VPS4A (protein, UniProt Q9UN37 1-437)
chain: MTTSTLQKAIDLVTKATEEDKAKNYEEALRLYQHAVEYFLHAIKYEAHSDKAKESIRAKCVQYLDRAEKLKDYLRSKEKHGKKPVKENQSEGKGSDSDSEGDNPEKKKLQEQLMGAVVMEKPNIRWNDVAGLEGAKEALKEAVILPIKFPHLFTGKRTPWRGILLFGPPGTGKSYLAKAVATEANNSTFFSVSSSDLMSKWLGESEKLVKNLFELARQHKPSIIFIDEVDSLCGSRNENESEAARRIKTEFLVQMQGVGNNNDGTLVLGATNIPWVLDSAIRRRFEKRIYIPLPEEAARAQMFRLHLGSTPHNLTDANIHELARKTEGYSGADISIIVRDSLMQPVRKVQSATHFKKVCGPSRTNPSMMIDDLLTPCSPGDPGAMEMTWMDVPGDKLLEPVVCMSDMLRSLATTRPTVNADDLLKVKKFSEDFGQES
With B1, the binding result with truncated P-gp Δ1 is “binds”; with truncated P-gp Δ2, “no binding”; in assay [1], “binds”.
